Laboratory results as given in patent US7655237B2, “Use of soluble CD14 for treatment of type 2 diabetes mellitus” (Bridge Bioresearch Limited, priority 2003, dated 2010).

Tests used:
C57BL/6J ob/ob mice = assay: treatment of insulin-resistant diabetic C57BL/6J ob/ob mice, intraperitoneal glucose tolerance test; format: in vivo; settings: 12 days treatment
Excerpt: The objective of this experiment was to study the effect of systemic administration of human recombinant sCD14 (rhCD14) with respect to relevant insulin resistance parameters in experimental mice (mice C57BL/6J ob/ob).
Experimental animals: Mice strains C57BL/6J ob/ob (The Jackson lab.). Males of 10 weeks old. These animals had obesity with hyperphagia, hyperinsulinemia (the presence of excess insulin in the blood), insulin resistance and moderate hyperglycemia (an excess of sugar in the blood).
Treatment of the mice with rhCD14: rhCD14 was continuously infused for 12 days by use of Alzet® pumps (pump 1002, 100 μl) implanted subcutaneously on the back of the animals. 20 mice were used. 10 with rhCD14 and 10 with saline serum (control). The dose was 1 μg/g weight of mice/day and it was administrated subcutaneously for 12 days.
Assay for glucose tolerance: Finalized the 12 days and after 16 hours of fasting, an intraperitoneal glucose tolerance test (GTT) was made. 2 g/kg of glucose (Glucosmon, 50%) were injected intraperitoneally. Blood samples were taken from the tail of the mice (20 μl) at 0, 15, 30, 60, 120 and 180 minutes after the glucose administration. The blood glucose levels were measured using a conventional glucometer (Menarini) and the insulin levels were meed by ELISA (Mercodia Ultrasensitive Mouse Insulin ELISA).

C57BL/6J mice (HF mice) = assay: treatment of insulin-resistant obese C57BL/6J mice (HF mice), glucose tolerance test; format: in vivo; settings: HF diet obese mice, 12 days treatment
Excerpt: The objective of this experiment was to study the effect of systemic administration of human recombinant sCD14 (rhCD14) with respect to relevant insulin resistance parameters in experimental mice (C57BL/6J mice (HF mice).
Experiential animals: Male mice strains C57BL/6J (HF mice) C(he Jackson lab.). These animals had obesity.
Treatment of the mice with rhCD14: Male C57BL/6J mice were fed a HF diet (Harlan Teklad No. 88137: 21% by wt and 42% kcal from fat) for 26-28 weeks. The last 12 days, mice received a dose of 1 μg/g bw per day of hCD14 in two injections (0.5 μg/g each one) every 12 hours. The control group was treated with vehicle (saline serum) alone. Each group contained 9 mice.
Assay for Glucose Tolerance: As in Example 1.

rhCD14: human recombinant soluble CD14 glycoprotein, binds bacterial lipopolysaccharide (LPS) (AELQQWLKPGLKVLSIAQAHSLNFSC; mammalian)
did not produce significant changes: ingestion of food, treated vs controls (C57BL/6J ob/ob mice) | weight of the epidermal adipose tissue, treated vs controls (C57BL/6J ob/ob mice) | weight of the soleus muscles, treated vs controls (C57BL/6J ob/ob mice) | ingestion of food, treated vs controls (C57BL/6J mice (HF mice)) | weight of the epidermal adipose tissue, treated vs controls (C57BL/6J mice (HF mice)) | weight of the soleus muscles, treated vs controls (C57BL/6J mice (HF mice))
